According to US20220257552A1, “METHODS OF PRESCREENING AND TREATING BREAST CANCERS WITH SELECTIVE ANDROGEN RECEPTOR MODULATORS” (priority 2021, published 2022):
These are yes or no findings as the source states them, for the method shown. In cells and extracts the contact can be indirect. Some results given as binding are weak or reduced against the parent protein; the word gives no strength.

Protein sequences, listed by entry. Tags and fused reporters are not part of them. Residues count along the entry.
UniProt P10275: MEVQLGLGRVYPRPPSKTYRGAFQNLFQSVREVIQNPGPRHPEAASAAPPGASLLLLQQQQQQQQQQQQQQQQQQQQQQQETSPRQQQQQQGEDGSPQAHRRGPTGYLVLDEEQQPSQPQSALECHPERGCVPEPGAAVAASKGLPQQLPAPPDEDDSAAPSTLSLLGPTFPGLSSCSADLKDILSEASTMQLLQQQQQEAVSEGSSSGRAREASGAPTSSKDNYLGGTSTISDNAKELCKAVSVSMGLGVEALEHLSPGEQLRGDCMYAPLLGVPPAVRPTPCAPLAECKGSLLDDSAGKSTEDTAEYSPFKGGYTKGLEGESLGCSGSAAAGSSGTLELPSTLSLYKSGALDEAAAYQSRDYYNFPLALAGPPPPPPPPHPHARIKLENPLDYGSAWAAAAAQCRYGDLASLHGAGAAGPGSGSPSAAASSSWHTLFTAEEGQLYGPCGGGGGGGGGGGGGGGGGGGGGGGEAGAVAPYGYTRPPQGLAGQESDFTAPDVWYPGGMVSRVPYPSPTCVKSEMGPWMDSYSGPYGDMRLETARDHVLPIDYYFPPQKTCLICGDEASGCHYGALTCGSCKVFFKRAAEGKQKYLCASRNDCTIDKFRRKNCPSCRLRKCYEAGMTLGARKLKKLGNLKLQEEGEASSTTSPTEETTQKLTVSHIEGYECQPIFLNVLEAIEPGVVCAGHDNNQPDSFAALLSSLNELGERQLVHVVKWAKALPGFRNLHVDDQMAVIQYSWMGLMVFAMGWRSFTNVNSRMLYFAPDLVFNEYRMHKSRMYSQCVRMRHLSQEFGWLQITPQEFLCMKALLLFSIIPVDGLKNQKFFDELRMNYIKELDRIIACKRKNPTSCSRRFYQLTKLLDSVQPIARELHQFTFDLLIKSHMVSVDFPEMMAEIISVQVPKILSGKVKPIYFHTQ
UniProt Q15788, residues 2-1441: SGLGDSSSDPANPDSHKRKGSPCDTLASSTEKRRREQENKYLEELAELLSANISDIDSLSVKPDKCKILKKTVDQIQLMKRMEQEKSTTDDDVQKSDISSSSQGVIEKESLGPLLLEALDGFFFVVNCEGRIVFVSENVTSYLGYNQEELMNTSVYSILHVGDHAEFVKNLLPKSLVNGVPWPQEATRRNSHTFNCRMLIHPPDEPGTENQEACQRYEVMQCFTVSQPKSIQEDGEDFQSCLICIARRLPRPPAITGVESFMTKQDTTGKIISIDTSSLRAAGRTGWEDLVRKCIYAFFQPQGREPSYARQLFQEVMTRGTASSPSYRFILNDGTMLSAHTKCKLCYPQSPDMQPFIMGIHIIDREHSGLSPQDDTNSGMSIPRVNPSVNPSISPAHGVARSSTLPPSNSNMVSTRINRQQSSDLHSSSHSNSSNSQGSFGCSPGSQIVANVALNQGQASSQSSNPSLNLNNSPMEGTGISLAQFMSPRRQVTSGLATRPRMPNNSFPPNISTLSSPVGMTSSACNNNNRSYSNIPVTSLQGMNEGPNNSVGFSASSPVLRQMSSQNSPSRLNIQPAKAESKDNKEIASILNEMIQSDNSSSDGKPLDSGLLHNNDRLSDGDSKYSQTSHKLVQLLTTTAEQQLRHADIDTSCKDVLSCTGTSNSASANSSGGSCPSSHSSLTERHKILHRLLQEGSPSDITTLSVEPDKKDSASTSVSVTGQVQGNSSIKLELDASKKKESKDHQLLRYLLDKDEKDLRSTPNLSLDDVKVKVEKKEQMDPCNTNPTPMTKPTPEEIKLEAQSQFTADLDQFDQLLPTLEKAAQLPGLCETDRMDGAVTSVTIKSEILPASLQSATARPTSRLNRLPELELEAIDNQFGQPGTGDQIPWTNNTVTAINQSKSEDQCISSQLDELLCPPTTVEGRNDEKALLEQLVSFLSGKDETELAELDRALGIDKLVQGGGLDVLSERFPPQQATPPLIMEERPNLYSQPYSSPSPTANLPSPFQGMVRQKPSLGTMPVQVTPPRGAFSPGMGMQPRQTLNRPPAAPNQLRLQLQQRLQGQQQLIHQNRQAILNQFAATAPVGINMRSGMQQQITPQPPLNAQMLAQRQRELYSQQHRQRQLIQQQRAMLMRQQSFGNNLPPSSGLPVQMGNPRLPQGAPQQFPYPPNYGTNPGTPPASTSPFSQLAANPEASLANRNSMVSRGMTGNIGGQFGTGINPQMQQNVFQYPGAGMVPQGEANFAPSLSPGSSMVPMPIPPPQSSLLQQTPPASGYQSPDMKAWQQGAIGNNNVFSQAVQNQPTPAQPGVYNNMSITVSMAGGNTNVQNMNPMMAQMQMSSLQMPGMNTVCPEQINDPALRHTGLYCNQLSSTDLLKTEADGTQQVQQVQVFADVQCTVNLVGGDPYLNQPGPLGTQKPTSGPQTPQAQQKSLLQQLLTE

What was measured:
[1] = target: androgen receptor (human (patient-derived xenograft HCI-13)) (UniProt P10275); experiment: co-immunoprecipitation with AR antibody from HCI-13 tumor extracts, Western blot for SRC-1
[2] = target: androgen receptor (human (patient-derived xenograft HCI-13)) (UniProt P10275); experiment: co-immunoprecipitation with AR antibody from HCI-13 tumor extracts (vehicle or Formula IX), Western blot for SRC-1

binding [1]: binds | binding [2]: binds
Substance: steroid receptor coactivator-1 (from UniProt Q15788 2-1441)
